We go through seven molecules from paper PMC4836198.

Assay [1] addresses T1, Flag-aPKC^KD (aPKC kinase domain, Tetra-Tag construct) (Drosophila) (UniProt A1Z9X0).
T1 sequence: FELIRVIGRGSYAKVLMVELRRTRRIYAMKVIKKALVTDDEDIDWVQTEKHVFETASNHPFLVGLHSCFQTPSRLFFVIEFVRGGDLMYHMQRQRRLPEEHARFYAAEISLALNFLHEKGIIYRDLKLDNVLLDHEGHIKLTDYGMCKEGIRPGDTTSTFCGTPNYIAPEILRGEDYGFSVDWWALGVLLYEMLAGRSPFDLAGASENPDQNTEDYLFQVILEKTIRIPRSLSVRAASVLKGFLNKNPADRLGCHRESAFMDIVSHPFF
Briefly: pull-down; Flag-aPKC^KD or Flag-aPKC^RD bound to magnetic beads, incubated with embryonic extracts; blot anti-Nuf; only the target purified.

The target in assay [2] is T2, GST-Rab11 (UniProt O18335).
T2 sequence: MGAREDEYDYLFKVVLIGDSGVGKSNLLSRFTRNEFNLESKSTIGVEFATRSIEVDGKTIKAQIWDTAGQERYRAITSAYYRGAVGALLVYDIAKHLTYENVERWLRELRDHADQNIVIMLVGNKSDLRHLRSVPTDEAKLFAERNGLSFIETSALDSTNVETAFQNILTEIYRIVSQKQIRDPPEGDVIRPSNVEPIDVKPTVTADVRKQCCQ
Briefly: pull-down; 20 ug GST-Rab11 on beads with 200 ng Nuf FL (GST removed), 2 h, 4 C, Rab11 interaction buffer (PBS, 2 mM DTT); then 0, 50 or 200 ng PKCz for 2 h; blot anti-Nuf; both purified.

Assay [3] has as its target T1, Flag-aPKC^KD (aPKC kinase domain, Tetra-Tag construct) (Drosophila). Briefly: pull-down; Flag-aPKC^KD or Flag-aPKC^KD-mut purified with magnetic beads from embryonic extracts, then incubated with purified recombinant Nuf-GST; blot anti-Nuf; both purified.
The target in assay [4] is GST-Nuf full length, wild type (Drosophila). Briefly: pull-down; 30 ug GST or GST-Nuf fusion on glutathione beads with 300 ug Drosophila embryo extract, 4 h, 4 C, lysis buffer (50 mM Tris HCl pH 7.5, 150 mM NaCl, 1 % Triton X-100); immunoblot of bound proteins; only the target purified. In general terms: Immunoblotting shows a protein as a band on a membrane.
In assay [5] the target is GST-Nuf full length S155A (Drosophila). The assay is described as above.
Assay [6] concerns the target GST-Nuf full length S155D (Drosophila). Described as above.
In assay [7] the target is GST-Nuf amino-terminal domain (1-241), wild type (Drosophila). The assay is described as above.
The target in assay [8] is GST-Nuf carboxy-terminal domain (Drosophila). Described as above.
The target in assay [9] is GST-Nuf full length, wild type (Drosophila). Briefly: pull-down; 20 ug GST or Nuf-GST on glutathione beads with 0.25 ug recombinant PKCz in lysis buffer, 2 h, 4 C; washes PBS with 0.5 M NaCl; blot anti-aPKC; both purified.

Results are given in words; binding and its absence hold for the method and conditions named. For some assays here: A result given as binding can be weak or reduced; the word gives no strength. For some assays here: Sequences can lack the tags named with a protein. For some assays here: In cells and extracts the contact can be indirect.

As for “Nuclear Fallout (Nuf), endogenous (Drosophila (endogenous in embryos))”, the binding result in assay [1] is on record as “binds”.
In the case of NufFL S155A, GST removed (Drosophila), the binding result in [2] is on record as “binds”.
Still for that read-out and setting: under NufFL wt, GST removed (Drosophila) stands “binds”.
For the molecule NufFL S155D, GST removed (Drosophila), the binding entry in assay [2] is given as “binds”.
As to “GST-Nuf full length, wild type (Drosophila)”, the binding entry in [3] is given as “binds”.

B1: aPKC, endogenous (enzyme, UniProt A1Z9X0 1-606)
chain: MQKMPSQILNDGSSVSLNSASMNMANTPNSITVKTAYNGQIIITTINKNISYEELCYEIRNICRFPLDQPFTIKWVDEENDPCTISTKMELDEAIRLYEMNFDSQLVIHVFPNVPQAPGLSCDGEDRSIYRRGARRWRKLYRVNGHIFQAKRFNRRAFCAYCQDRIWGLGRQGFKCIQCKLLVHKKCHKLVQKHCTDQPEPLVKERAEESSDPIPVPLPPLPYEAMSGGAEACETHDHAHIVAPPPPEDPLEPGTQRQYSLNDFELIRVIGRGSYAKVLMVELRRTRRIYAMKVIKKALVTDDEDIDWVQTEKHVFETASNHPFLVGLHSCFQTPSRLFFVIEFVRGGDLMYHMQRQRRLPEEHARFYAAEISLALNFLHEKGIIYRDLKLDNVLLDHEGHIKLTDYGMCKEGIRPGDTTSTFCGTPNYIAPEILRGEDYGFSVDWWALGVLLYEMLAGRSPFDLAGASENPDQNTEDYLFQVILEKTIRIPRSLSVRAASVLKGFLNKNPADRLGCHRESAFMDIVSHPFFKNMDWELLERKQVTPPFKPRLDSDRDLANFPPEFTGEAVQLTPDDDHVIDNIDQSEFEGFEYVNPLLMSLEDCV
Regarding B1, the binding result is recorded as “binds” in [4]; “binds” in assay [5]; “no binding” in assay [6]; “binds” in [7]; “no binding” in assay [8].

B2: PKCz (PRKCz Recombinant Human Protein) (enzyme, UniProt Q05513 1-592)
chain: MPSRTGPKMEGSGGRVRLKAHYGGDIFITSVDAATTFEELCEEVRDMCRLHQQHPLTLKWVDSEGDPCTVSSQMELEEAFRLARQCRDEGLIIHVFPSTPEQPGLPCPGEDKSIYRRGARRWRKLYRANGHLFQAKRFNRRAYCGQCSERIWGLARQGYRCINCKLLVHKRCHGLVPLTCRKHMDSVMPSQEPPVDDKNEDADLPSEETDGIAYISSSRKHDSIKDDSEDLKPVIDGMDGIKISQGLGLQDFDLIRVIGRGSYAKVLLVRLKKNDQIYAMKVVKKELVHDDEDIDWVQTEKHVFEQASSNPFLVGLHSCFQTTSRLFLVIEYVNGGDLMFHMQRQRKLPEEHARFYAAEICIALNFLHERGIIYRDLKLDNVLLDADGHIKLTDYGMCKEGLGPGDTTSTFCGTPNYIAPEILRGEEYGFSVDWWALGVLMFEMMAGRSPFDIITDNPDMNTEDYLFQVILEKPIRIPRFLSVKASHVLKGFLNKDPKERLGCRPQTGFSDIKSHAFFRSIDWDLLEKKQALPPFQPQITDDYGLDNFDTQFTSEPVQLTPDDEDAIKRIDQSEFEGFEYINPLLLSTEESV
On to B2, for which, in assay [9], the binding entry is listed as “binds”.
